Reference: PMC12670160, “A drug-repurposing screen of FDA- and EMA-approved drugs identifies two NF-κB inhibitors active against eumycetoma” (Journal of Antimicrobial Chemotherapy, 2025)
Structures can show the parent of a compound that is named as a salt. About 130 (2.5%) of roughly 5,300 compounds showed an effect of 50% or more. The list shows a part of the results.

The compounds below were run on M. mycetomatis strain mm55. Settings: primary screen, metabolic activity vs growth control; 96 h, 2 µM; inhibitor.

Compound | % viability [%]
N=C(N)SCCc1cnc[nH]1 [ONC0004439, imetit] | 120.7
CNC[C@H](O)c1cccc(O)c1 [ONC0000459, lphenylephrine hydrochloride] | 72.58
O=C1Nc2cc(Cl)c(Cl)cc2N2CCNCC12 (stereo not drawn) [ONC0001784, way161503] | 127.3
CC(=O)NNC(=O)N1Cc2ccccc2Oc2ccc(Cl)cc21 [ONC0000146, sc19220] | 93.82
N[C@@H]1CN(c2c(F)cc3c(=O)c(C(=O)O)cn([C@@H]4C[C@@H]4F)c3c2Cl)CC12CC2 [ONC0004951, sitafloxacin hydrate] | 68.99
CCCCCCN(CCCCCC)C(=O)Cc1c(-c2ccc(F)cc2)[nH]c2ccccc12 [ONC0003019, fgin127] | 82
CCN(CC)CCNC(=O)c1ccc(NC(C)=O)cc1 [ONC0005520, acecainide hydrochloride] | 103.1
CN1C(=O)CC(C)(c2ccccc2)C1=O (stereo not drawn) [ONC0003975, methsuximide] | 103.1
Cc1nc(Nc2n[nH]c3c2CN(C(=O)N[C@H](CN(C)C)c2ccccc2)C3(C)C)c2sccc2n1 [ONC0000912, pf3758309] | 82.32
CC(C)=CCC/C(C)=C/CC/C(C)=C/C=C/C(C)=C/C(=O)O [ONC0000885, peretinoin] | 65.8
CCn1cc(-c2ccnc3[nH]c(-c4cccc(CN(C)C)c4)cc23)c(-c2ccc(NC(=O)N(C)C)cc2)n1 [ONC0004351, gsk1070916] | 110.4
CCC(=O)NS(=O)(=O)c1ccc(-c2c(-c3ccccc3)noc2C)cc1 [ONC0000995, parecoxib] | 79.02
CCOc1ccn(-c2ccc(F)cc2)c(=O)c1C(=O)Nc1ccc(Oc2ccnc(N)c2Cl)c(F)c1 [ONC0004593, bms 777607] | 73.11
CCN(CC)CCN(Cc1ccc(-c2ccc(C(F)(F)F)cc2)cc1)C(=O)Cn1c(SCc2ccc(F)cc2)nc(=O)c2c1CCC2 [ONC0000791, darapladib] | 84.74
CC(C)(C)NCC(O)COc1cccc2[nH]c(C#N)cc12 (stereo not drawn) [ONC0002675, cyanopindolol] | 69.14
N#C[C@@H]1CCCN1C(=O)CNC12CC3CC(CC(O)(C3)C1)C2 [ONC0004521, vildagliptin laf237] | 61.97
COc1ccc(/C=C\c2cc(OC)c(OC)c(OC)c2)cc1OP(=O)(O)O [ONC0002263, fosbretabulin disodium] | 117.4
CC(C)c1cc2c(cc1S(=O)(=O)O)[C@@]1(C)CCC[C@@](C)(C(=O)O)[C@@H]1CC2 [ONC0002185, ecabet] | 89.11

2 consecutive compounds already listed, quoted:
Compound | % viability [%]
CC(C)=CCC/C(C)=C/CC/C(C)=C/C=C/C(C)=C/C(=O)O [ONC0000885, peretinoin] | 65.8
CCn1cc(-c2ccnc3[nH]c(-c4cccc(CN(C)C)c4)cc23)c(-c2ccc(NC(=O)N(C)C)cc2)n1 [ONC0004351, gsk1070916] | 110.4
